The text below walks through data of article PMC10163288.

As a reminder, the apparent Kd is the concentration giving half-maximal binding under the conditions of the assay.

Some of the results follow.

Sequences and labels used below:
B1: il10ra_site1_normal_mot_HHH_b2_05797_000000294_0001_1_19_H_._HHH_b1_02457_0001_0000300027_0000001_0_af2pred_0001 (protein)
chain: SSSSDEEVRELIEILEELREHVSPEEEELIEATLRVAKVLLEAGDPEAARFLLKAAIEAIRSSSS
B2: il10ra_site1_normal_mot_HHH_b2_02497_000000220_0001_1_20_H_._d4a0d7e14d3257bbacf2cba0c18c7893_0001_1_af2_0001_0000100001_0000001_0 (protein)
chain: DEDYELLRIIIELARDPELQRLLQLLIQFWFRGDPRVRELLEELEELLEQGDPEEAAELLKEFLK
B3: il10ra_site1_normal_mot_HHH_b2_08143_000000031_0001_38_55_H_._HHH_b2_07298_0001_0000200010_0000002_0_af2pred_0001 (protein)
chain: SSSSSSEEEVHARAALWFARLIEDPEAKRILLEIAEEFAEKAGDEELLEEIEEELEKVGSSSSSS
B4: il10ra_site1_sap_14_mot_HHH_b2_02375_000000081_0001_1_20_H_._HHH_b2_02047_0001_0000200016_0000002_0_0001 (protein)
chain: SSSSSSEEEALREAYELIERAFEIEDEREVRELLEEALELAEEANNWALQFAIRHALRSLSSSSS
B5: il10ra_site1_normal_mot_HHH_b1_00999_000000080_0001_41_55_H_._HHH_b2_03336_0001_0000100008_0000002_0 (protein)
chain: SSSSSSDVEELLEEARELAEEGDPQWARVLAEAVRHAYENGDEELLREIWELVKEIGHSSSSSSS
B6: il10ra_site1_sap_13_mot_HHH_b2_02053_af2_000000006_0001_3_19_H_._HHH_b1_06660_af2_0001_0000100004_0000001_0_0001 (protein)
chain: SLEELLRELLEELGVPPERIRLLELAFRRQRKQGSPPEDVLRALLFLLHAAGDPAREAVRELLER
B7: il10ra_site1_sap_15_mot_HHH_b2_07145_000000158_0001_24_40_H_._HHH_b2_04542_0001_0000100009_0000001_1_0001_af2pred_0001 (protein)
chain: SSSSDVEERVEELAEEVRELLENGNPEEALQVIREIVRLAAEHNDEEALRIARELLKLVFSSSSS
B8: il10ra_site1_normal_mot_HHH_b2_00033_000000036_0001_41_54_H_._HHH_b2_02401_0001_0000100019_0000002_0 (protein)
chain: SSSSSDEEEVKELIREAEELRERGNPEEAMRVLIEALQLAHRSGNEELFQELWEFAKKLASSSSS
B9: il10ra_site1_normal_mot_HHH_b2_03651_000000190_0001_21_37_H_._HHH_b2_07896_0001_0000100001_0000002_0_af2pred_0001 (protein)
chain: SSSSSDEEYEEEVEELLEEAKKIEDEHEASRVLLEALRLAYELGNPELLQLVFEVIRRVISSSSS
B10: il10ra_site1_sap_20_mot_HHH_b1_07256_000000044_0001_1_17_H_._HHH_b2_06732_af2_0001_0000300014_0000001_0_0001 (protein)
chain: SSSSDAYEAVERLIEEAVEAIRNRDDELLERILRELEELAKEKGNQIIEFIVELLERAFEGSSSS
B11: il10ra_site1_normal_mot_HHH_b1_03260_000000175_0001_42_57_H_._HHH_b1_05644_af2_0001_0000300015_0000001_0_af2pred_0001 (protein)
chain: SSSSSEDEERIELTLRFARFLLENGDPEAARFLVEAAIELAKRNNNPELLEEAEKLEEEINSSSS
B12: il10ra_site1_sap_16_mot_HHH_b1_05704_af2_000000048_0001_1_18_H_._HHH_b1_07589_0001_0000200021_0000001_0_0001 (protein)
chain: SSSSTDESYRLAKEVIEKAIELIRNGNPEEARELLEEALEELEKLGDQIAVMQLRHLLELASSSS
B13: il10ra_site1_sap_18_mot_HHH_b2_07044_000000036_0001_1_16_H_._HHH_b2_02374_0001_0000200026_0000002_0_0001_af2pred_0001 (protein)
chain: SSSSDDVERAIEILIRAAKLAKKQGNEEVARLAIRFALALAKAANDEELLEELERILEELRSSSS
B14: il10ra_site1_normal_mot_HHH_b2_02337_000000026_0001_38_52_H_._HHH_b2_07051_0001_0000100002_0000001_0 (protein)
chain: SSSSSEEEELEEILEEIKRLYKEGDEERVLQLLQRLARLAFRLNDPEVLRELWELVQKIASSSSS
B15: il10ra_site1_normal_mot_HHH_b2_01447_af2_000000258_0001_1_20_H_._HHH_b1_01230_af2_0001_0000100002_0000002_0_af2pred_0001 (protein)
chain: SSSSSAEEVRRLIREAIELAREGDEEEAEEVLEEAQRLAEELNNPLLEWIIRSALEQLRRSSSSS
B16: il10ra_site1_sap_23_mot_HHH_b2_03708_000000000_0001_1_18_H_._HHH_b1_08343_0001_0000300038_0000001_0_0001 (protein)
chain: SSSSDLEKEIFHLLIEAYHLLQRGDEEEARELLEEAKELAEELNDPALLRAVEVLLAKLDSSSSS
B17: il10ra_site1_sap_16_mot_HHH_b1_00682_000000235_0001_1_20_H_._HHH_b1_05074_0001_0000100010_0000001_0_0001 (protein)
chain: SSSSDEEREELEELIRELEELLKNGDPERALRVIQRAIRLAFQSNDPELLRELWEVIKRHFSSSS
B18: il10ra_site1_normal_mot_HHH_b2_07144_000000289_0001_1_18_H_._HHH_b1_07702_0001_0000300014_0000001_1_af2pred_0001 (protein)
chain: SSSSSSSNAYELSREILEVLYEGDEEEAERLLKELEELAEELNDPIAKAAVEALRSALSSSSSSS

The target of the experiment is il10ra, Q13651. Put plainly: yeast display titration.
On to B1, for which the “apparent Kd” value is “inactive: no binding seen”.

Consider B2, for which the “apparent Kd” value is “inactive: no binding seen”.

Regarding B3, the “apparent Kd” value was “inactive: no binding seen”.

Regarding B4, the “apparent Kd” value is “inactive: no binding seen”.

As for B5, the “apparent Kd” value is “inactive: no binding seen”.

For the molecule B6, the “apparent Kd” value was “inactive: no binding seen”.

In the case of B7, the “apparent Kd” value was “inactive: no binding seen”.

As for B8, the “apparent Kd” value was “inactive: no binding seen”.

Take B9: the “apparent Kd” value was “inactive: no binding seen”.

Regarding B10, the apparent Kd is inactive: > 1120 nM.

With B11, the “apparent Kd” value is “inactive: no binding seen”.

On to B12, for which the “apparent Kd” value is “inactive: no binding seen”.

Turning to B13, the “apparent Kd” value is “inactive: no binding seen”.

B14: the “apparent Kd” value was “inactive: no binding seen”.

Regarding B15, the “apparent Kd” value was “inactive: no binding seen”.

Turning to B16, the “apparent Kd” value was “inactive: no binding seen”.

For the molecule B17, the “apparent Kd” value was “inactive: no binding seen”.

Take B18: the “apparent Kd” value is “inactive: no binding seen”.
